No constants are given. Whether binding was seen depends on the method and setting. Some binding calls cover weakened binding; strength is not graded here.
Molecular target: Fab 1
Experiment: KinExA solution equilibrium titration: cyno TSLP titrated into fixed Fab 1 (1000 pM filled diamonds, 40 pM open squares); free Fab 1 captured on hu TSLP-coated beads

By UniProt entry, the sequences of proteins in these tests, tags left out. Where a name states a change or a piece, a line headed by the entry shows the natural chain unless it says otherwise. Chains listed by the source or under a name are the forms on record and can include a tag or linker.
cyno TSLP (A0A7N9CAT7, form named): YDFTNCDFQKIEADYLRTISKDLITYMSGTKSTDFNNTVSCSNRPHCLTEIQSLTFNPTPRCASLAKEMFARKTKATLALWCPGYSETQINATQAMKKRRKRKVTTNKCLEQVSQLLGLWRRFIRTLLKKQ

binding: binds
Substance: cyno TSLP (from UniProt A0A7N9CAT7 29-159) (ligand)
